This note sets out measurements from patent US20240076391A1 (ONCURIOUS, published 2024).

These are yes or no findings as the source states them, for the method shown. Binding can be weak; no strength is given.

This test concerns the target Macaca CCR8 (Macaca). The test can be described thus: flow cytometry, Macaca CCR8 stable cell line and transiently transfected HEK293 cells. (In general: In flow cytometry, cells or beads pass a laser one at a time.)

B1: VHH-62 (VHH, not shown: small tags and cut ends)
VHH: EVQLVESGGGLVQPGGSLRLSCAASGFSFSSFALSWYRQAPGKERELVARITTTGATNYADSVKGRFTISRDNAKNMGYLQMNSLRPEDTAVYYCNARARLSSVFDYWGQGTLVTVSS
Take B1: the binding result is listed as “binds”.

B2: VHH-65 (VHH)
VHH: EVQLVESGGGLVQPGGSLRLSCAASGRAFSSYNMGWFRQAPGKERDFVATISSSGTNYANSVKGRFTISRDNAKNTVYLQMNSLRPEDTAVYYCNAKTVTRTGGVITGSRIEYDYWGQGTLVTVSS
notes: Monovalent VHH purified from E. coli periplasm by IMAC; not shown: C-terminal FLAG3 and His6 tags
For the molecule B2, the binding result is “binds”.

B3: VHH-74 (VHH)
VHH: EVQLVESGGGLVQPGGSLRLSCAASGSTFSIKSIGWYRQAPGKQRELVADITRGAGINYADSVKGRFTISRDNTKNTMYLQMNSLRPEDTAVYYCNVKTIKRTGGIMTGSKIEYDYWGQGTLVTVSS
notes: as for B2
Regarding B3, the binding entry is “binds”.

B4: VHH-56 (VHH)
VHH: EVQLVESGGGLVQPGGSLRLSCAASRSIYNVMAMGWYRQAPGKERELVAVVWSSGNTNYADSVKGRFTVSRDNAKNTVYLQMNSLRPEDTAVYYCYSKSLIGTSRYEIWGQGTLVTVSS
notes: Monovalent VHH purified from E. coli periplasm by IMAC; PelB signal peptide is removed on export; not shown: C-terminal FLAG3 and His6 tags
Regarding B4, the binding result was “binds”.
